# Results reported in publication PMC12040169 (PLOS Biology, 2025).
# The other results are listed elsewhere or left out.
# Test system: T1, CTL2-GFP (C. trachomatis L2/434/Bu, GFP-expressing)
# T1 construct: L2/434/Bu, GFP-expressing
# Set-up: species or system HeLa; Intracellular C. trachomatis growth in HeLa cells, bulk GFP fluorescence relative to DMSO
# Conditions: bulk GFP, single well; 28.5 h, 10 µM; inhibitor
row,SMILES,% of control remaining [%]
1,O=c1cc(NCc2ccncc2)c2ccccc2o1 [CBK017259],90.3367
2,CCOc1ccc(C2=NN(C(=O)CCC(=O)O)C(c3ccc4nccnc4c3)C2)cc1 (stereo not shown) [CBK296703],137.855
3,O=C(Nc1ccc(F)cc1)C1CC(=O)n2c(nc3ccccc32)N1 (stereo not shown) [CBK287282],146.458
4,CN(C)CC(=O)Nc1ccc2n(c1=O)C[C@H]1C[C@@H]2CN(Cc2ccccn2)C1 [CBK289206],101.737
5,Cc1cccc(-n2nnnc2SC(C)C(=O)O)c1 (stereo not shown) [CBK287003],118.028
6,Cc1ccc(CNC(=O)c2ccc3c(c2)NC(=O)C(N2CCCC2)S3)cc1 (stereo not shown) [CBK071788],64.6532
7,Cc1nccn1CCCn1cncc1-c1ccc2c(c1)CC(C)(C)O2 [CBK281809],112.011
8,CCOc1ccc2cc(C3CC(c4ccccc4)=NN3C(=O)CCC(=O)O)c(Cl)nc2c1 (stereo not shown) [CBK296097],97.0095
9,c1cnc(NCc2cc3n(n2)CCN(CC2CCCC2)C3)nc1 [CBK307007],105.483
10,Cc1nc2c(OCCOc3ccccc3)cccn2c1N(C)CC1CC1 [CBK147272],108.548
11,O=C(NCc1ccco1)c1ccc2c(c1)OCO2 [CBK262133],112.919
12,O=C(O)CNC1=NC2(CCCCC2)Cc2ccccc21 [CBK287001],127.956
13,OCCNc1nc(Nc2ccc(O)cc2)nc2ccccc12 [CBK266606C],137.804
14,COc1ccc(CNC(=O)c2cc(S(=O)(=O)N3CCCC3)c[nH]2)cc1 [CBK304601],146.984
15,CCOC(=O)c1cnn2c(O)cc(CN3CCc4sccc4C3)nc12 [CBK305680],104.028
16,Cc1ccc(N2C(=O)C(CC(=O)Nc3cccc(F)c3)N(CCc3ccncc3)C2=O)cc1 (stereo not shown) [CBK268891],140.791
17,COc1cccc(CC(=O)NCCNc2cccc(F)c2C#N)c1 [CBK305684],120.751
18,Nc1ncccc1C(=O)OCc1ccc(-c2ccccc2)cc1 [CBK295353],132.649
19,O=C(Nc1cnc(-c2ccc(F)c(Cl)c2)c(-c2cccnc2)n1)c1cnccn1 [CBK036819],133.663
20,CC(C)(C)NCCN1CCn2c1nc1ccccc12 [CBK019113],108.455
21,Cc1ccccc1CNC(=O)c1ccc(C)c([N+](=O)[O-])c1 [CBK264010],108.955
22,Cc1cccc(-n2ncc3c2ncn2c(COc4ccccc4C)nnc32)c1 [CBK265567],122.131

# In a second layout: entries from further up
row | SMILES | % of control remaining [%]
12 | O=C(O)CNC1=NC2(CCCCC2)Cc2ccccc21 [CBK287001] | 127.956
13 | OCCNc1nc(Nc2ccc(O)cc2)nc2ccccc12 [CBK266606C] | 137.804
